Laboratory results from patent publication US12099068B2, “Biomarkers for graft-versus-host disease” (Incyte Corporation, priority 2018, dated 2024).

How the values were obtained:
plasma proteins [1] = assay: Proteins of Table 11 stably expressed in complete responders between days 1 and 28, Example 5 (Table 12); assay type: in vivo, human; conditions: day 1 vs day 28
Procedure: Due to the limited sample size, steroid-naive (N=10) and steroid-refractory (N=18) patients were combined for further analysis. Broad proteomic analysis of over 1000 proteins was conducted by OLINK Proteomics (Watertown, MA) using a proximity extension assay as described by the manufacturer. Data are presented as normalized protein expression (NPX) in log 2 scale. Statistical differences were evaluated using unpaired and paired t tests, one-way […] (ANOVA), and Pearson Correlation. Significance was conferred when P<0.05.

plasma proteins [2] = assay: OLINK proximity extension assay of baseline plasma, CR compared to PD/Death, updated classification, Example 5 (Table 11); assay type: in vivo, human; conditions: itacitinib 200 or 300 mg QD plus corticosteroids, response at day 28

B1: TN-R (protein, UniProt Q92752 32-1358, looked up)
Tenascin-R: QLEVTTERVQRQSVEEEGGIANYNTSSKEQPVVFNHVYNINVPLDNLCSSGLEASAEQEVSAEDETLAEYMGQTSDHESQVTFTHRINFPKKACPCASSAQVLQELLSRIEMLEREVSVLRDQCNANCCQESAATGQLDYIPHCSGHGNFSFESCGCICNEGWFGKNCSEPYCPLGCSSRGVCVDGQCICDSEYSGDDCSELRCPTDCSSRGLCVDGECVCEEPYTGEDCRELRCPGDCSGKGRCANGTCLCEEGYVGEDCGQRQCLNACSGRGQCEEGLCVCEEGYQGPDCSAVAPPEDLRVAGISDRSIELEWDGPMAVTEYVISYQPTALGGLQLQQRVPGDWSGVTITELEPGLTYNISVYAVISNILSLPITAKVATHLSTPQGLQFKTITETTVEVQWEPFSFSFDGWEISFIPKNNEGGVIAQVPSDVTSFNQTGLKPGEEYIVNVVALKEQARSPPTSASVSTVIDGPTQILVRDVSDTVAFVEWIPPRAKVDFILLKYGLVGGEGGRTTFRLQPPLSQYSVQALRPGSRYEVSVSAVRGTNESDSATTQFTTEIDAPKNLRVGSRTATSLDLEWDNSEAEVQEYKVVYSTLAGEQYHEVLVPRGIGPTTRATLTDLVPGTEYGVGISAVMNSQQSVPATMNARTELDSPRDLMVTASSETSISLIWTKASGPIDHYRITFTPSSGIASEVTVPKDRTSYTLTDLEPGAEYIISVTAERGRQQSLESTVDAFTGFRPISHLHFSHVTSSSVNITWSDPSPPADRLILNYSPRDEEEEMMEVSLDATKRHAVLMGLQPATEYIVNLVAVHGTVTSEPIVGSITTGIDPPKDITISNVTKDSVMVSWSPPVASFDYYRVSYRPTQVGRLDSSVVPNTVTEFTITRLNPATEYEISLNSVRGREESERICTLVHTAMDNPVDLIATNITPTEALLQWKAPVGEVENYVIVLTHFAVAGETILVDGVSEEFRLVDLLPSTHYTATMYATNGPLTSGTISTNFSTLLDPPANLTASEVTRQSALISWQPPRAEIENYVLTYKSTDGSRKELIVDAEDTWIRLEGLLENTDYTVLLQAAQDTTWSSITSTAFTTGGRVFPHPQDCAQHLMNGDTLSGVYPIFLNGELSQKLQVYCDMTTDGGGWIVFQRRQNGQTDFFRKWADYRVGFGNVEDEFWLGLDNIHRITSQGRYELRVDMRDGQEAAFASYDRFSVEDSRNLYKLRIGSYNGTAGDSLSYHQGRPFSTEDRDNDVAVTNCAMSYKGAWWYKNCHRTNLNGKYGESRHSQGINWYHWKGHEFSIPFVEMKMRPYNHRLMAGRKRQSLQF
- Fold Change (D1 vs D28), proteins Up-Regulated in CR Compared to PD/Death (plasma proteins [1]): 1.1234
- Fold Change, Up-Regulated in CR Compared to PD/Death (plasma proteins [2]): 1.8732

B2: KYNU (protein, UniProt Q16719 1-465, looked up)
Kynureninase: MEPSSLELPADTVQRIAAELKCHPTDERVALHLDEEDKLRHFRECFYIPKIQDLPPVDLSLVNKDENAIYFLGNSLGLQPKMVKTYLEEELDKWAKIAAYGHEVGKRPWITGDESIVGLMKDIVGANEKEIALMNALTVNLHLLMLSFFKPTPKRYKILLEAKAFPSDHYAIESQLQLHGLNIEESMRMIKPREGEETLRIEDILEVIEKEGDSIAVILFSGVHFYTGQHFNIPAITKAGQAKGCYVGFDLAHAVGNVELYLHDWGVDFACWCSYKYLNAGAGGIAGAFIHEKHAHTIKPALVGWFGHELSTRFKMDNKLQLIPGVCGFRISNPPILLVCSLHASLEIFKQATMKALRKKSVLLTGYLEYLIKHNYGKDKAATKKPVVNIITPSHVEERGCQLTITFSVPNKDVFQELEKRGVVCDKRNPNGIRVAPVPLYNSFHDVYKFTNLLTSILDSAETKN
- Fold Change (D1 vs D28), proteins Down-Regulated in CR Compared to PD/Death (plasma proteins [1]): −1.0138
- Fold Change, Down-Regulated in CR Compared to PD/Death (plasma proteins [2]): −2.9203

B3: TWEAK (protein, UniProt O43508 94-249, looked up)
Tumor necrosis factor ligand …: SAPKGRKTRARRAIAAHYEVHPRPGQDGAQAGVDGTVSGWEEARINSSSPLRYNRQIGEFIVTRAGLYYLYCQVHFDEGKAVYLKLDLLVDGVLALRCLEEFSATAASSLGPQLRLCQVSGLLALRPGSSLRIRTLPWAHLKAAPFLTYFGLFQVH
- Fold Change (D1 vs D28), proteins Up-Regulated in CR Compared to PD/Death (plasma proteins [1]): −1.2551
- Fold Change, Up-Regulated in CR Compared to PD/Death (plasma proteins [2]): 1.8183
